This passage reports binding results from article PMC9786881 (Viruses, 2022).

By UniProt entry, the sequences of proteins in these tests, tags left out. Residues count along the entry.
UniProt P22363, residues 1-68: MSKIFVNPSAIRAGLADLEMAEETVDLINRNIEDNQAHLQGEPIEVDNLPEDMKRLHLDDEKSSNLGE

No constants are given. Whether binding was seen depends on the method and setting.

The target in the test is RABV phosphoprotein residues 1-68 with C-terminal His6 (P68−His6) (rabies virus (CVS-11 strain)) (UniProt P22363). The test is described as follows: SEC-MALLS; both purified.

For the substance “RABV phosphoprotein residues 1-68 with C-terminal His6 (P68−His6) (from UniProt P22363 1-68) (peptide)”, the binding entry is listed as “no binding”.
